Results reported in paper PMC9226200.
No constants are given. Whether binding was seen depends on the method and setting. In cells and extracts the contact can be indirect. Some entries that bind do so weakly or less than the wild type.

Chains of the proteins cited; added tags and fusions are not shown.
UniProt P52480: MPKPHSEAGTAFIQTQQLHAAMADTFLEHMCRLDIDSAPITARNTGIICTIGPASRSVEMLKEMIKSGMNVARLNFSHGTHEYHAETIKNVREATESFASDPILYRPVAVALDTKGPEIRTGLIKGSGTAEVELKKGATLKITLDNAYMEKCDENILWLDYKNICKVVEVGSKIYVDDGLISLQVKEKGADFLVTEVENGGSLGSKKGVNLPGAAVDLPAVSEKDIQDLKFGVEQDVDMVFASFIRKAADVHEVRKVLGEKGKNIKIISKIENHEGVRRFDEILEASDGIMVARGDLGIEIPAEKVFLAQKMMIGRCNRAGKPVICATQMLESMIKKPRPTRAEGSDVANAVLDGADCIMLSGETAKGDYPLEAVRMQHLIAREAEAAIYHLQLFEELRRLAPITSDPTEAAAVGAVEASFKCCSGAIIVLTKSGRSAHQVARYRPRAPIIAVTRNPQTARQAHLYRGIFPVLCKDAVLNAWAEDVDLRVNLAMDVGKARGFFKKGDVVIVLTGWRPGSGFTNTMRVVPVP
UniProt Q01147: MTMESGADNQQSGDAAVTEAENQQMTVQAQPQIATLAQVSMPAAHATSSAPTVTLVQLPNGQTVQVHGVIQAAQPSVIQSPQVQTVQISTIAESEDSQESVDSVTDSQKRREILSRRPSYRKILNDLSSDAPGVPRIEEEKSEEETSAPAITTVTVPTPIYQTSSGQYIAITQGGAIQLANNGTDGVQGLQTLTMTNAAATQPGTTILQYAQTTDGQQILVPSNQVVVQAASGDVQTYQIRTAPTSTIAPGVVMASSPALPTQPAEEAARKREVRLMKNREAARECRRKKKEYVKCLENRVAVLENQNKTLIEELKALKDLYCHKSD

Target: PKM2 (mouse (endogenous in splenic B cells of C57BL/6J mice)) (UniProt P52480)
Assay: co-IP; extracts of purified CD19+ splenic B cells from C57BL/6J mice cultured with or without Hcy (100 μmol/L) for 24 h; immunoprecipitation with an antibody against PKM2, IgG as negative control; CREB1 detected by Western blot

binding: binds
Substance: cyclic AMP-responsive element-binding protein 1 (from UniProt Q01147 1-327)
